{"source": "PubChem BioAssay AID1688", "about": "(National Center for Advancing Translational Sciences (NCATS), 2009)", "note": "Out of some 220,000 compounds screened, about 2,400 (1.1%) were called active. Inconclusive results, whose numbers are uncertain, are shown with a selection of clear calls. Calls come from the whole dose curve; as a rule, active = well fitted inhibition curve with a large enough effect; inconclusive = small, poorly fitted or top-dose-only effect, or effect the other way; inactive = no such curve, though single readings can be large or run the other way. Potencies beside an inconclusive call are fits to weak or partial responses and may not hold up. % is set by controls: 0 for no effect and ±100 for the full control effect; potency is the fitted concentration of half-maximal effect."}
{"test": "qHTS Multiplex Assay to Identify Dual Action Probes in a Cell Model of Huntington: Aggregate Formation (GFP); note: nearly all actives have a fitted effect of over 60% in size", "details": "PC12 HttQ103-GFP aggregates, Acumen cytometry, 40 h; activity change, negative = inhibition: at 46.1 µM (top of the series) unless noted", "in_short": "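PC12/HTTQ103-GFP, ecdysone-inducible; teb 100 nM; cpd qHTS titration; GFP aggregates read on laser cytometer, Ex 488/Em 500-530 nm.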"}
{"smiles": "Cn1c(=N)n(CC(=O)c2ccccc2)c2ccccc21", "activity change, negative = inhibition": "inactive: 0.86% [at 9.22 µM]"}
{"smiles": "Cc1ccc(S(=O)(=O)Nc2ccccc2C=Nc2cccc(C)c2C)cc1", "Potency": "inconclusive: 31.6 µM [inhibitor, single point]"}
{"smiles": "CCOC(=O)C1CCN(C(=O)Nc2ccc(NC(=O)C3CCN(C(=O)OCC)CC3)cc2)CC1", "Potency": "inconclusive: 3.98 µM [inhibitor, partial curve]"}
{"smiles": "CCn1cc(C(=O)O)c(=O)c2cc(F)c(N3CCN(C(=O)Nc4ccccc4)CC3)cc21", "Potency": "inconclusive: 17.8 µM [inhibitor, single point]"}
{"smiles": "O=C(CSC(=S)N1CCCC1)c1cc(Br)cc(Br)c1O", "Potency": "inconclusive: 14.1 µM [inhibitor, single point]"}
{"smiles": "COc1ccccc1N1C(=O)CC(N2CCc3ccccc32)C1=O", "note": "(centres undefined)", "Potency": "inconclusive: 3.55 µM [inhibitor, partial curve]"}
{"smiles": "Cc1ccccc1Cn1c(=O)n(Cc2ccco2)c(=O)c2ccccc21", "Potency": "inconclusive: 22.4 µM [activator, single point]"}
{"smiles": "CC1(C)C2CC=C(/C=N/NC(=S)NCCc3ccccc3)C1C2", "note": "(centres undefined)", "Potency": "inconclusive: 35.5 µM [inhibitor, single point]"}
{"smiles": "O=C(Nc1nc2ccccc2[nH]1)c1ccc(Cl)c(S(=O)(=O)N2CCCC2)c1", "Potency": "inconclusive: 22.4 µM [inhibitor, single point]"}
{"smiles": "Cc1cc2c(=O)n(Cc3ccco3)c(SCC(=O)c3ccc(Cl)s3)nc2s1", "Potency": "inconclusive: 35.5 µM [inhibitor, single point]"}
{"smiles": "Cc1ccc(S(=O)(=O)NCC(=O)N(CC(=O)NCc2ccco2)Cc2ccco2)cc1", "activity change, negative = inhibition": "inactive: 15.6% [at 9.22 µM]"}
{"smiles": "CC(=O)Nc1sc(N/N=C\\c2ccccc2F)nc1-c1cccs1", "Potency": "inconclusive: 5.62 µM [inhibitor, single point]"}
{"smiles": "O=C(NNC(=O)c1cccnc1SCc1cccc([N+](=O)[O-])c1)c1ccc(F)cc1", "Potency": "inconclusive: 35.5 µM [inhibitor, single point]"}
{"smiles": "COC(=O)CCCNC(=O)c1ccc2[nH]c(C)c(C)c2c1", "Potency": "active: 1.26 µM"}
{"smiles": "NC(=O)NC(=O)CSc1nc(C2CCCCC2)n(-c2ccccc2)n1", "Potency": "inactive"}
{"smiles": "Cc1nc(SCC(=O)c2cccc([N+](=O)[O-])c2)n[nH]1", "Potency": "inconclusive: 31.6 µM [activator, single point]"}
{"smiles": "CCOC(=O)c1c(CN(CC)CC)oc2cc(Br)c(O)cc12", "Potency": "inactive"}
{"smiles": "O=C(CCn1nc(-c2ccc(Cl)cc2)c2ccccc2c1=O)NN1CCOCC1", "activity change, negative = inhibition": "inactive: 0.629% [at 9.22 µM]"}
{"smiles": "COc1c(Cl)cc(-c2noc(C)c2C(=O)NCCc2ccc(C)cc2)cc1Cl", "Potency": "inconclusive: 3.16 µM [inhibitor, single point]"}
{"smiles": "COc1ccc(C2CC(=O)c3c(C)nc(N4CCN(Cc5ccccc5)CC4)nc3C2)cc1OC", "note": "(centres undefined)", "Potency": "inconclusive: 25.1 µM [inhibitor, single point]"}
{"smiles": "Cc1cc(Cl)n2c(nc3cc(F)c(F)cc32)c1C#N", "activity change, negative = inhibition": "inactive: 2.08% [at 1.84 µM]"}
{"smiles": "Cc1nn(C)cc1CNC(=O)Nc1ccc(Br)cc1Cl", "Potency": "inconclusive: 2.82 µM [inhibitor, single point]"}
{"smiles": "CCOc1cc(CNc2ccccc2)cc(Br)c1OCC(=O)NC(C)(C)C", "Potency": "active: 35.5 µM"}
{"smiles": "Cc1ccc(Nc2cc(C)nn2-c2nc(C)cc(C)n2)cc1", "Potency": "inconclusive: 31.6 µM [inhibitor, single point]"}
{"smiles": "CC(C)N(Cc1nc(-c2ccc(Cl)cc2)no1)C(=O)CCC1CCCC1", "Potency": "inconclusive: 22.4 µM [inhibitor, single point]"}
{"smiles": "COc1ccc(-c2c(C)nn3c(N)c(C#N)cnc23)cc1OC", "activity change, negative = inhibition": "inactive: -22.3% [at 9.22 µM]"}
{"smiles": "CCOC(=O)C1C(=O)C=C(c2ccc(C)cc2)CC1c1ccco1", "note": "(centres undefined)", "Potency": "inactive"}
{"smiles": "COc1cccc(/C=N/Nc2ccc(S(=O)(=O)O)cc2)c1O", "Potency": "inactive"}
{"smiles": "S=C(NCCc1ccccc1)Nc1cccc2cnccc12", "Potency": "active: 3.55 µM"}
{"smiles": "O=C(O)c1ccc(/C=N/Nc2cccc(C(F)(F)F)c2)cc1", "Potency": "inconclusive: 31.6 µM [activator, single point]"}
{"smiles": "O=C(Cn1cc(C(F)(F)F)ccc1=O)N/N=C/c1ccccc1", "Potency": "inactive"}
{"smiles": "COc1ccc(/C=N/N=C2/CC(C)(C)Cc3n[nH]c(=O)cc32)cc1", "Potency": "inconclusive: 35.5 µM [activator, partial curve, poor fit]"}
{"smiles": "CCOC(=O)CN/C=C(\\C#N)c1ccccc1", "Potency": "inactive"}
{"smiles": "COC(=O)CCCC1=CC2=CC(=O)C(C)(OC(=O)c3cccs3)C(=O)C2=CN1C1CCCCC1", "note": "(centres undefined)", "activity change, negative = inhibition": "inactive: -2.4% [at 9.22 µM]"}
{"smiles": "Cc1cccc(Cc2cnc(N3C(=N)SC(C)C3=O)s2)c1", "note": "(centres undefined)", "Potency": "active: 22.4 µM"}
{"smiles": "O=C(Nn1c(C2CCCCC2)nc2ccccc2c1=O)c1ccc([N+](=O)[O-])cc1", "Potency": "inconclusive: 11.2 µM [inhibitor, partial curve, poor fit]"}
{"smiles": "S=c1[nH]nc(-c2ccco2)n1-c1ccccc1Cl", "activity change, negative = inhibition": "inactive: 19.5% [at 9.22 µM]"}
{"smiles": "COc1ccccc1NC(=S)Nc1cccc2cnccc12", "Potency": "inactive"}
{"smiles": "O=C(O)c1ccc(Nc2cc(Cl)c3nonc3c2[N+](=O)[O-])cc1", "Potency": "inconclusive: 28.2 µM [inhibitor, single point]"}
{"smiles": "CC1Cc2ccccc2N1C(=O)COc1nc2ccccc2nc1N1CCOCC1", "note": "(centres undefined)", "Potency": "inactive"}
{"smiles": "CN(C)c1ccc(NC(=O)COC(=O)CCC(=O)c2ccc(F)cc2)cc1", "Potency": "inactive"}
{"smiles": "C=CCn1c(NC(=O)CC)c(C(=O)OCC)sc1=S", "activity change, negative = inhibition": "inactive: 11% [at 9.22 µM]"}
{"smiles": "Cc1ccc(P(=O)(CSC(=N)N)c2ccc(C)cc2)cc1", "Potency": "inconclusive: 35.5 µM [activator, single point]"}
{"smiles": "Oc1c(CN2CCc3ccccc3C2)cc(Cl)c2cccnc12", "Potency": "inconclusive: 3.55 µM [inhibitor, full curve]"}
{"smiles": "COc1ccc(C)cc1N/C(N)=N/c1nc(C)cc(C)n1", "Potency": "inconclusive: 10 µM [inhibitor, partial curve]"}
{"smiles": "COc1ccc(OC)c(S(=O)(=O)NCC2CCCO2)c1", "note": "(centres undefined)", "Potency": "inconclusive: 35.5 µM [activator, single point]"}
{"smiles": "O=C(N/N=C\\c1ccc([N+](=O)[O-])s1)c1cncc(Br)c1", "Potency": "inconclusive: 35.5 µM [inhibitor, single point]"}
{"smiles": "Cn1c(=O)c2c(nc(N/N=C/c3ccc(OC(=O)c4ccco4)cc3)n2Cc2ccccc2)n(C)c1=O", "Potency": "inconclusive: 35.5 µM [inhibitor, single point]"}
{"smiles": "COc1ccc(CCC(=O)N2CCN(S(=O)(=O)c3ccc4ccccc4c3)CC2)cc1", "Potency": "inconclusive: 10 µM [inhibitor, partial curve]"}
{"smiles": "O=C(Nc1ccc(S(=O)(=O)NCc2ccccc2)cc1)c1ccc(Br)o1", "Potency": "inconclusive: 22.4 µM [inhibitor, single point]"}
{"smiles": "C/C(=N\\NC(=O)CN(c1ccccc1)S(=O)(=O)c1ccccc1[N+](=O)[O-])C(C)(C)C", "Potency": "inactive"}
{"smiles": "CCOC(=O)c1sc2nc(CSc3ccccc3)nc(N3CCCN(C)CC3)c2c1C", "Potency": "inconclusive: 35.5 µM [inhibitor, single point]"}
{"smiles": "CCc1ccc(Nc2cc(=O)n(C3CCCCC3)c(=O)[nH]2)cc1", "Potency": "inactive"}
{"smiles": "CO[C@]12C[C@@H](COC(=O)c3cncc(Br)c3)CN(C)[C@@H]1Cc1cn(C)c3cccc2c13", "Potency": "inactive"}
{"smiles": "Cc1ccc(-c2csc(=Nc3cccnc3)n2CCCn2ccnc2)cc1C", "Potency": "active: 3.55 µM"}
{"smiles": "Cc1ccc(O)c(C2=NNC(O)(C(F)(F)F)C2)c1", "note": "(centres undefined)", "Potency": "inactive"}
{"smiles": "CCOC(=O)CSc1nc2cc(C(=O)NCC3CCCO3)ccc2c(=O)n1Cc1ccco1", "note": "(centres undefined)", "Potency": "inconclusive: 3.55 µM [activator, single point]"}
{"smiles": "O=C(NC(Cc1c[nH]c2ccccc12)C(=O)N/N=C/c1ccc(Cl)cc1)c1cccs1", "note": "(centres undefined)", "Potency": "inconclusive: 31.6 µM [inhibitor, single point]"}
{"smiles": "CN(Cc1cc2ccccc2[nH]c1=O)C(=O)COc1ccccc1", "activity change, negative = inhibition": "inactive: 7.83% [at 9.22 µM]"}
{"smiles": "Cc1cccc(N2CCN(C(=O)Cc3ccc(-n4c(=O)[nH]c5ccsc5c4=O)cc3)CC2)c1C", "Potency": "inconclusive: 25.1 µM [inhibitor, single point]"}
{"smiles": "CCN(CC)S(=O)(=O)c1ccc(-c2ccc(S(=O)(=O)N(CC)CC)cc2)cc1", "Potency": "inconclusive: 10 µM [inhibitor, partial curve]"}
{"smiles": "CCOC(=O)C1=C(CNCCOc2ccc(OC)cc2)NC(=O)NC1c1ccc2c(c1)OCO2", "note": "(centres undefined)", "Potency": "inconclusive: 31.6 µM [inhibitor, single point]"}
{"smiles": "C/C(=N\\O)C1(C)N(O)C(C)(C)C(c2ccco2)=[N+]1[O-]", "note": "(centres undefined)", "Potency": "inconclusive: 5.62 µM [activator, single point]"}
{"smiles": "CCOc1cc(CNc2ccc(N3CCN(C(C)=O)CC3)cc2)cc(Br)c1OC", "Potency": "inconclusive: 7.08 µM [activator, full curve, poor fit]"}
{"smiles": "CC(NC(=O)COC(=O)C1CSC2(C)CCC(=O)N12)C12CC3CC(CC(C3)C1)C2", "note": "(centres undefined)", "Potency": "inactive"}
{"smiles": "Cc1[nH]c2ccc(-c3n[nH]c(=S)n3-c3ccccc3)cc2c1C", "Potency": "inconclusive: 25.1 µM [activator, single point]"}
{"smiles": "CCCCOc1ccccc1C1C(C(=O)OC)=C(C)N(C)C(C)=C1C(=O)OC", "Potency": "inconclusive: 35.5 µM [inhibitor, single point]"}
{"smiles": "CCOC(=O)/C(=C\\C=C1/Sc2cc(OCC)c(OCC)cc2N1CC)C(C)=O", "Potency": "inconclusive: 7.08 µM [inhibitor, partial curve]"}
{"smiles": "CC(=O)Nc1ccc(CN2CCc3c([nH]c4ccccc34)C2c2ccccn2)cc1", "note": "(centres undefined)", "Potency": "inconclusive: 1.26 µM [inhibitor, single point]"}
